Data from US7442839B2, “Phenethanolamine derivative for the treatment of respiratory diseases” (Glaxo Group Limited, priority 2002, dated 2008).
Some entries share one result that the patent states for a list of compounds. For at least one compound, name, drawing or mass did not settle the structure.

Chains of the proteins cited; added tags and fusions are not shown.
UniProt P07550, whole entry: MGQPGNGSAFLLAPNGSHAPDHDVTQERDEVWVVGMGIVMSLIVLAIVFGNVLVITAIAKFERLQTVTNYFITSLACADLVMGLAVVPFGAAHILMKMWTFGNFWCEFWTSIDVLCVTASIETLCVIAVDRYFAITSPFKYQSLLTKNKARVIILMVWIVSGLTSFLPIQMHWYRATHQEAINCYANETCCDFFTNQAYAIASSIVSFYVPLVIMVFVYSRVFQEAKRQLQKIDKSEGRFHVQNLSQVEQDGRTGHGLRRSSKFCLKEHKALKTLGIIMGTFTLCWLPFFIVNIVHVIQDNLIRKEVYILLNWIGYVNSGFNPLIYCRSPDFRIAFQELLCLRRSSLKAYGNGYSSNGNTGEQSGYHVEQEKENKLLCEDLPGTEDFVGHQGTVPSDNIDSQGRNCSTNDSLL

Key:
[1] = molecular target: T1, human beta 2 adrenoreceptor (Homo sapiens, UniProt P07550); experiment: frog melanophores transfected with the human beta 2 adrenoreceptor, pigment dispersal (Method 1); assay type: cell-based; conditions: change in light transmittance after melatonin-induced pigment aggregation
T1 construct: expressed in transfected cells; host or cells: frog melanophores

[2] = molecular target: T2, human beta-2 receptor (Homo sapiens, UniProt P07550); experiment: Chinese hamster ovary cells co-expressing the human receptor with a reporter gene, cAMP measurement in whole cells or membranes (Method 2); assay type: cell-based; conditions: CHO cells or membranes, agonist potency
T2 construct: expressed in transfected cells; host or cells: Chinese hamster ovary cells (whole cells or membranes derived from them)

SMILES	IC50 [1] [nM]	pEC50 at the human beta-2 receptor [2]
[O-][S+](c1cccc(CCCCOCCCCCCNCC(O)c2ccc(O)c(CO)c2)c1)C1CCCC1 (single isomer, unassigned; isomer 1) [Example 2]	< 1000	
CC(=O)O.O=S(=O)(c1cccc(CCCCOCCCCCCNCC(O)c2ccc(O)c(CO)c2)c1)C1CCCC1 [Example 4, 4-{(1R)-2-[(6-{4-[3-(Cyclopentylsulfonyl)phenyl]butoxy}hexyl)amino]-1-hydroxyethyl}-2-(hydroxymethyl)phenol acetate]	< 1000	> 6
CC(=O)O.O=S(=O)(c1ccc(CCCCOCCCCCCNCC(O)c2ccc(O)c(CO)c2)cc1)C1CCCC1 [Example 5, 4-{(1R)-2-[(6-{4-[4-(Cyclopentylsulfonyl)phenyl]butoxy}hexyl)amino]-1-hydroxyethyl}-2-(hydroxymethyl)phenol acetate]		> 6
CC(=O)O.O=S(=O)(c1cccc(CCCCOCCCCCCNC[C@H](O)c2ccc(O)c(CO)c2)c1)C1CCCCC1 [Example 6, 4-((1R)-2-{[6-({4-[3-(Cyclohexylsulfonyl)phenyl]butyl}oxy)hexyl]amino}-1-hydroxyethyl)-2-(hydroxymethyl)phenol acetate]		> 6
CC(=O)O.O=S(=O)(c1cccc(CCCCOCCCCCCNCC(O)c2ccc(O)c(CO)c2)c1)C1CC=CC1 [Example 7, 4-((1R)-2-{[6-({4-[3-(3-Cyclopenten-1-ylsulfonyl)phenyl]butyl}oxy)hexyl]amino}-1-hydroxyethyl)-2-(hydroxymethyl)phenol acetate]		> 6
CC(=O)O.O=S(=O)(c1cccc(CCCCCOCCCCCCNC[C@H](O)c2ccc(O)c(CO)c2)c1)C1CCCC1 [Example 8, 4-((1R)-2-{[6-({5-[3-(Cyclopentylsulfonyl)phenyl]pentyl}oxy)hexyl]amino}-1-hydroxyethyl)-2-(hydroxymethyl)phenol acetate]		> 6
CC(=O)O.O=S(=O)(c1cccc(CCCOCCCCCCCNCC(O)c2ccc(O)c(CO)c2)c1)C1CCCC1 [Example 9, 4-((1R)-2-{[7-({3-[3-(Cyclopentylsulfonyl)phenyl]propyl}oxy)heptyl]amino}-1-hydroxyethyl)-2-(hydroxymethyl)phenol acetate]		> 6
